This test addresses Flag-SQSTM1, Q13501. In words: co-IP; cytoplasmic supernatant of transfected BT-549 cells in hypo-osmic buffer (25 mmol/L Tris pH 7.4, 85 mmol/L KCl) incubated with Flag antibody-conjugated agarose beads overnight at 4°C; Western blotting. To be noted: remark: other sources report otherwise.

Our source for the binding values is article PMC8189927.

Results are given in words; binding and its absence hold for the method and conditions named. In cells and extracts the contact can be indirect. Some results given as binding are weak or reduced against the parent protein; the word gives no strength.

B1: cGAS (GMP-AMP synthase), Q8N884 1-522 (protein)
chain: MQPWHGKAMQRASEAGATAPKASARNARGAPMDPTESPAAPEAALPKAGKFGPARKSGSRQKKSAPDTQERPPVRATGARAKKAPQRAQDTQPSDATSAPGAEGLEPPAAREPALSRAGSCRQRGARCSTKPRPPPGPWDVPSPGLPVSAPILVRRDAAPGASKLRAVLEKLKLSRDDISTAAGMVKGVVDHLLLRLKCDSAFRGVGLLNTGSYYEHVKISAPNEFDVMFKLEVPRIQLEEYSNTRAYYFVKFKRNPKENPLSQFLEGEILSASKMLSKFRKIIKEEINDIKDTDVIMKRKRGGSPAVTLLISEKISVDITLALESKSSWPASTQEGLRIQNWLSAKVRKQLRLKPFYLVPKHAKEGNGFQEETWRLSFSHIEKEILNNHGKSKTCCENKEEKCCRKDCLKLMKYLLEQLKERFKDKKHLDKFSSYHVKTAFFHVCTQNPQDSQWDRKDLGLCFDNCVTYFLQCLRTEKLENYFIPEFNLFSSNLIDKRSKEFLTKQIEYERNNEFPVFDEF
In the case of B1, the binding result was “binds”.
